In the supplement of paper PMC10849652:
This is one part of the list.

Amino acid sequences for entries named in this document (tags omitted). A change or cut given only in a name is not applied to a line headed by its entry.
UniProt P02788: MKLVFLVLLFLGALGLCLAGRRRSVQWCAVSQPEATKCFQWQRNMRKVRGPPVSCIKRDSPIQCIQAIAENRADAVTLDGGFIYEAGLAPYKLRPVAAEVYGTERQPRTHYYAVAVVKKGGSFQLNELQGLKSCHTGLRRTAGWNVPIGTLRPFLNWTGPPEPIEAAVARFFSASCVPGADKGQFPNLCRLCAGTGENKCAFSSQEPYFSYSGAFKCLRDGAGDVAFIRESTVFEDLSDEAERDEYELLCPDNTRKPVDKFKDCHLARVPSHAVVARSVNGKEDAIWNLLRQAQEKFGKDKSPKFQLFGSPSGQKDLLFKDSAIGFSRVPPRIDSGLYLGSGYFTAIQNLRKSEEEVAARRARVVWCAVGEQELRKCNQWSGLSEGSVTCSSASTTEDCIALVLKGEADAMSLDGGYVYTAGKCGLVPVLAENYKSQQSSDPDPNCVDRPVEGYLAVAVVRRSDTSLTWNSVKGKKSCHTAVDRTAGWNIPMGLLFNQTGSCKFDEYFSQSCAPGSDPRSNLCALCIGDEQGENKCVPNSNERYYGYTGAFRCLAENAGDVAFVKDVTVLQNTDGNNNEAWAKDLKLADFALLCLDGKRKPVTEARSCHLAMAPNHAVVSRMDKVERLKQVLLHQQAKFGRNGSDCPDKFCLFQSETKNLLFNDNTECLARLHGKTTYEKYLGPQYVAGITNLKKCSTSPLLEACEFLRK
UniProt Q3KQU3: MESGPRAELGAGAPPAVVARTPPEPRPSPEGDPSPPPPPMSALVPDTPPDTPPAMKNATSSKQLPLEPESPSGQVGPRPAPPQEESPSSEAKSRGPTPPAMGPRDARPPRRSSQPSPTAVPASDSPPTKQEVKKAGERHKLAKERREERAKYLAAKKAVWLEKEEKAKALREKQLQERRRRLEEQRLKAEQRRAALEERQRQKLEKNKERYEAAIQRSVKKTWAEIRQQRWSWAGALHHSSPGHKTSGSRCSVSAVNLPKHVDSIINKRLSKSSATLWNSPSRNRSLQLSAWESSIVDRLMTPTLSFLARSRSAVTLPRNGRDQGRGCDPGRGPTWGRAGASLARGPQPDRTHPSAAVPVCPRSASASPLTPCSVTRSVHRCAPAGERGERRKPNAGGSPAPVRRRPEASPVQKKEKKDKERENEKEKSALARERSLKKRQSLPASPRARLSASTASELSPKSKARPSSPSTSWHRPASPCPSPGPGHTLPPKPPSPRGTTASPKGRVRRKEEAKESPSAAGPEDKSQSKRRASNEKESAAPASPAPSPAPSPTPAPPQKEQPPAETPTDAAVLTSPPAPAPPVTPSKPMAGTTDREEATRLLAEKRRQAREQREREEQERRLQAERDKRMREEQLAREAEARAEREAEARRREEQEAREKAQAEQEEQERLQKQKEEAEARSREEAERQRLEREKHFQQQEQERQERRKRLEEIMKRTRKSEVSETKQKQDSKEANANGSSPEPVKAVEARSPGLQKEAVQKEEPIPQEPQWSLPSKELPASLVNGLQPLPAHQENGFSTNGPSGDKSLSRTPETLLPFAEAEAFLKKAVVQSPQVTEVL
UniProt Q8IV50: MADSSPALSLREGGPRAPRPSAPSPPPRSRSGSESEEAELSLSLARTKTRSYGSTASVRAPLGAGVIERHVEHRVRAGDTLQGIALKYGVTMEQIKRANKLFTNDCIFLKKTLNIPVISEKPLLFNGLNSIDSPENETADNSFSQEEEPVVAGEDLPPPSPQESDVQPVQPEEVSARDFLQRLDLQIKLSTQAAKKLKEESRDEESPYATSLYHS
UniProt P43366: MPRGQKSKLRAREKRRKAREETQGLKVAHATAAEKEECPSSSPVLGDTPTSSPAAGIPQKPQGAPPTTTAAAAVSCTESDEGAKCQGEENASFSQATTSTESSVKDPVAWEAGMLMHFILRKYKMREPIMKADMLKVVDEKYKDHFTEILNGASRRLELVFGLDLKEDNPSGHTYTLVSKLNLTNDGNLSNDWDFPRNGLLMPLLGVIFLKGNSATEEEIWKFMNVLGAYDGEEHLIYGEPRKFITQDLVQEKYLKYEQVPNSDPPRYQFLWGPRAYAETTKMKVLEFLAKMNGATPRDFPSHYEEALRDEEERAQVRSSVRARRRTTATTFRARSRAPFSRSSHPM
UniProt Q9UPT6: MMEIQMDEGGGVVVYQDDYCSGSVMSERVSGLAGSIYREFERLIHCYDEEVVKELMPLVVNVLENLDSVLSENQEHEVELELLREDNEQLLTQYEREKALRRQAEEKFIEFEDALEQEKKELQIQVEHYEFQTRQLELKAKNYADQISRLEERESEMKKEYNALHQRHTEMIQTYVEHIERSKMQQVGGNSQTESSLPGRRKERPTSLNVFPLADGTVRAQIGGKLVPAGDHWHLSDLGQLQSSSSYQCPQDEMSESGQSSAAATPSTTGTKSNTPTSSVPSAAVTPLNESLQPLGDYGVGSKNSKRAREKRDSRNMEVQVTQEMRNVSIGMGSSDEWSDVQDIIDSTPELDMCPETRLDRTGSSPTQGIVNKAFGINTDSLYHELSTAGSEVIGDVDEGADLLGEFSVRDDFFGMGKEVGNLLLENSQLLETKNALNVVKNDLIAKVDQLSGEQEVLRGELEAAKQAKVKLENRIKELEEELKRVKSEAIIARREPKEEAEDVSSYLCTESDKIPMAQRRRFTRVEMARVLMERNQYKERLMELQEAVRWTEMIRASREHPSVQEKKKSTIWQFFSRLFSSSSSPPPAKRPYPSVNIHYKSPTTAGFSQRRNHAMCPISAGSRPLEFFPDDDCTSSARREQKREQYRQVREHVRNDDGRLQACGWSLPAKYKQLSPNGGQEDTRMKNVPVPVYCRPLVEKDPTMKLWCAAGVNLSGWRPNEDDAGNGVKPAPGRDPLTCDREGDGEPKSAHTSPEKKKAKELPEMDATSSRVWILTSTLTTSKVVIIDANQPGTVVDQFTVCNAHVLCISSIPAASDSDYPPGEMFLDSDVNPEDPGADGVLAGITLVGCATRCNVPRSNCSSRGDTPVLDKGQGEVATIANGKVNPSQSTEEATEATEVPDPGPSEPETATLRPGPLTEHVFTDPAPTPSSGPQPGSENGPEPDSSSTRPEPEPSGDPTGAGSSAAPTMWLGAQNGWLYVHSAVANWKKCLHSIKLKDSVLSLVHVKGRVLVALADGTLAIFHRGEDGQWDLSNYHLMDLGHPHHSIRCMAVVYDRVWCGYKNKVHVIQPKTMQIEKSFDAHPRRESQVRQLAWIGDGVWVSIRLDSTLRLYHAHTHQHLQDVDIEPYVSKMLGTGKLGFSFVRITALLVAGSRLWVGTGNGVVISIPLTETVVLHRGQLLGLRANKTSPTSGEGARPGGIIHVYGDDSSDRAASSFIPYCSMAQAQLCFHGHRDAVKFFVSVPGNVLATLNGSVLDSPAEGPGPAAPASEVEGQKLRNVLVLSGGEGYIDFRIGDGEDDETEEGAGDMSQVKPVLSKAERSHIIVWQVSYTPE
UniProt Q9UNF1: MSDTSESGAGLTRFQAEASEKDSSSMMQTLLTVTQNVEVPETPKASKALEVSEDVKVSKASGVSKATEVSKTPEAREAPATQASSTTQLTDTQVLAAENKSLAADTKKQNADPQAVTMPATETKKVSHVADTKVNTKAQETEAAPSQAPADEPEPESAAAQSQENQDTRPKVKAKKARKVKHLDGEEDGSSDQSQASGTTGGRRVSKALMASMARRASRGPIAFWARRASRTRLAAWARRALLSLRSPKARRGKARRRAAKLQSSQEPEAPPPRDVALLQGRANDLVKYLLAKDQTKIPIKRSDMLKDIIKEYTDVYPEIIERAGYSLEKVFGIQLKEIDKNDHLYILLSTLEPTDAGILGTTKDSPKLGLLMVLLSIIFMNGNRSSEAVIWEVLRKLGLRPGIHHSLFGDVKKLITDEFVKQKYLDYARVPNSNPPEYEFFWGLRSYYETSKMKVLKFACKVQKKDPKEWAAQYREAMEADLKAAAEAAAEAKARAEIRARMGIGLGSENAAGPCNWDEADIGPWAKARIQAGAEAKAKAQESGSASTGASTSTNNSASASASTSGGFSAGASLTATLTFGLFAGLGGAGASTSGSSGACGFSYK
UniProt O00462: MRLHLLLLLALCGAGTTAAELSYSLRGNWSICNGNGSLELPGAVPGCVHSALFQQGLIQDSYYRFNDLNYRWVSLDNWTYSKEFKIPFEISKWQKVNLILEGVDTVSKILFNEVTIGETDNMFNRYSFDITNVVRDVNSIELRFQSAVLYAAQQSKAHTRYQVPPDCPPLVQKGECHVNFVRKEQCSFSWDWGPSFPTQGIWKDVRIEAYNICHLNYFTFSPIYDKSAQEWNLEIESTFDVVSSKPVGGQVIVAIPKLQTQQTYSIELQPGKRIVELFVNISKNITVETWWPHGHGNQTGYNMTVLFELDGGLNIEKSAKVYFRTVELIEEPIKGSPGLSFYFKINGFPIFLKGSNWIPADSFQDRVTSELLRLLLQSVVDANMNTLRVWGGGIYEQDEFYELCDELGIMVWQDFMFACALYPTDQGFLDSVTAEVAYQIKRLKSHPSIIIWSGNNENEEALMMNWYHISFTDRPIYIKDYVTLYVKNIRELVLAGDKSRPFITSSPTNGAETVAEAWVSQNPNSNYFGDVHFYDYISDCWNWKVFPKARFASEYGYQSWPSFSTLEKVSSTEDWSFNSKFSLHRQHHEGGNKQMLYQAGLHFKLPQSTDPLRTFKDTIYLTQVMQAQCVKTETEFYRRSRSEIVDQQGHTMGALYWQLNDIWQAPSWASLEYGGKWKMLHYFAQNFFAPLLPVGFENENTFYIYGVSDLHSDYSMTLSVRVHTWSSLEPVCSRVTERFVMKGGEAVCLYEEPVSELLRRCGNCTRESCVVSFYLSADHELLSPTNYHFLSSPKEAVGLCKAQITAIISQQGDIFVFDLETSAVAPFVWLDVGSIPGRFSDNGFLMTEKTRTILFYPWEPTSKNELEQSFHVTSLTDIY
UniProt O14733: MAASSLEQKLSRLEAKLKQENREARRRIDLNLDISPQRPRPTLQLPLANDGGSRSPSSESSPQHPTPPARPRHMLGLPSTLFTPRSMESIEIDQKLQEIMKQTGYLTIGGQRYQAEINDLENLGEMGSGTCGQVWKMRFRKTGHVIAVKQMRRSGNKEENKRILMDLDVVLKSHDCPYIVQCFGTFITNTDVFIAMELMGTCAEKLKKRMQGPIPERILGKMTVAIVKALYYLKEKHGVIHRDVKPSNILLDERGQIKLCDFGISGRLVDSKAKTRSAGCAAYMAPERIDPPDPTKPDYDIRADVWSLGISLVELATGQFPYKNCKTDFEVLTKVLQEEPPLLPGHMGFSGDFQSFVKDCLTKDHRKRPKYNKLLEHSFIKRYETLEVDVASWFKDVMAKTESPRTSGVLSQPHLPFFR
UniProt Q96GA3: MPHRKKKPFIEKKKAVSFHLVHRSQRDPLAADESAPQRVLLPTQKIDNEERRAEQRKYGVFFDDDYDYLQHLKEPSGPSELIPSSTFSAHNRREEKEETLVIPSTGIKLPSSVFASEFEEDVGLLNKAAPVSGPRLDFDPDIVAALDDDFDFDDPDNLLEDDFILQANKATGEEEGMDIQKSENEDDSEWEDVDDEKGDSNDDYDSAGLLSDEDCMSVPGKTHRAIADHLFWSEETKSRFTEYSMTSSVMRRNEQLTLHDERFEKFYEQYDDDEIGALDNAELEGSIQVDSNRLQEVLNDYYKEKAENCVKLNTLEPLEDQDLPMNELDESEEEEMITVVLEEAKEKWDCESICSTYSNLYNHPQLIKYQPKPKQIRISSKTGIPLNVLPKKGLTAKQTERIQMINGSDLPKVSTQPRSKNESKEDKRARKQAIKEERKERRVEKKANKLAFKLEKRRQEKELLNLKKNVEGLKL
UniProt Q96GW9: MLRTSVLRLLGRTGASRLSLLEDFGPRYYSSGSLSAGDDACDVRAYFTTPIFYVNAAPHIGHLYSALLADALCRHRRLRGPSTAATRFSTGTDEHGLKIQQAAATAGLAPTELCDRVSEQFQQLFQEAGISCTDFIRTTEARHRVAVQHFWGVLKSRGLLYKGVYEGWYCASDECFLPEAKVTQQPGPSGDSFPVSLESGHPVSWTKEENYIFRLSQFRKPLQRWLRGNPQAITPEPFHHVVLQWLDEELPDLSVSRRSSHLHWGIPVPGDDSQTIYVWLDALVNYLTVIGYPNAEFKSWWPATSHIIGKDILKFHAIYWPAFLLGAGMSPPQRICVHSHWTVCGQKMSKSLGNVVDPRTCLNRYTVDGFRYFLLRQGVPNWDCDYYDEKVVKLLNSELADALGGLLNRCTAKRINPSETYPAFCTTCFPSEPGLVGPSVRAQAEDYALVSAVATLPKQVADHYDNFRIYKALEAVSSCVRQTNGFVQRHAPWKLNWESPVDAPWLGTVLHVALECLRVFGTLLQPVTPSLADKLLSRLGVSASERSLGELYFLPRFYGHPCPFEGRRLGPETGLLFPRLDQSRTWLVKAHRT

Legend:
Test in all cases: log2 fold change, soluble protein after heating vs DMSO (PISA); higher = thermal stabilisation; K562 lysate, 10 uM; active = over 0.2 and 3.5 SD of the protein, either way, in both replicates (recomputed)
[1] = compound: C=CC(=O)N1CCC[C@@H](n2nc(-c3ccc(Oc4ccccc4)cc3)c3c(N)ncnc32)C1 [ibrutinib]
Procedure, shortened: (§1)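 Values give the log-two fold change in thermal stability against solvent controls, from duplicates. Crude K562 extract at 1 mg/mL protein, made by dounce homogenisation in PBS pH 7.4 with 1 mM MgCl2, was treated with 10 μM compound for 30 min. After 3 min heating across 48°C-58°C, aliquots were pooled, adjusted to 0.5% NP-40 at 4°C and centrifuged at 21,000xg for 90 min. The supernatant was measured by TMTpro 16plex LC-MS/MS with channel sums equalised.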

[2] = compound: CC(=O)c1cnc2ccc(-c3cc(Cl)c(O)c(Cl)c3)nc2c1N[C@H]1CC[C@H](CN(C)C)CC1
Procedure, shortened: as §1

[3] = compound: CC(C)(C)Cn1c(N)nc2ccc(-c3[nH]c(C(C)(C)C)nc3-c3ccc(F)cc3)nc21 [ralimetinib]
Procedure, shortened: as §1

[4] = compound: CC(C)(O)CC(=O)NCCn1ccc2ncnc(Nc3ccc(Oc4cccc(C(F)(F)F)c4)c(Cl)c3)c21
Procedure, shortened: as §1

[5] = compound: CC(C)C1=C2N=C(C=C(N2N=C1)NCC3=CC=CC=C3)NCCCCCCN
Procedure, shortened: as §1

[6] = compound: CC1=C(C(CC(=O)N1)C2=CC=C(C=C2)C(F)(F)F)C(=O)NC3=C(C=C4C(=C3)C=NN4)F
Procedure, shortened: as §1

[7] = compound: CC1=C(C2=C(C=C1)C(=O)C3=CC=CC=C3N2CCCN)C
Procedure, shortened: as §1

[8] = compound: CC1=C(C=C(C=C1)NC(=O)C2=CC(=CC=C2)C(C)(C)C#N)NC3=CC4=C(C=C3)N=CN(C4=O)C
Procedure, shortened: as §1

[9] = compound: CC1=C(C=C(C=C1)NC(=O)C2=CC(=CC=C2)N(C)C)NC(=O)C3=CC=C(C=C3)O
Procedure, shortened: as §1

[10] = compound: CC1=CC=C(C=C1)SC2=C3C=C(SC3=CN=C2)C(=O)N
Procedure, shortened: as §1

| Target | log2 fold change [1] | log2 fold change [2] | log2 fold change [3] | log2 fold change [4] | log2 fold change [5] | log2 fold change [6] | log2 fold change [7] | log2 fold change [8] | log2 fold change [9] | log2 fold change [10] |
| --- | --- | --- | --- | --- | --- | --- | --- | --- | --- | --- |
| LUZP1 (UniProt Q86V48) | inactive: 0.002 | inactive: -0.002 | inactive: 0.003 | inactive: -0.012 | inactive: 0.016 | inactive: -0.006 | inactive: 0.012 | inactive: 0.011 | inactive: -0.002 | inactive: 0.017 |
| LTF (UniProt P02788) | inactive: -0.205 | inactive: 0.038 | inactive: 0.052 | inactive: 0.613 | inactive: 1.36 | inactive: 1.29 | inactive: 0.131 | inactive: 0.248 | inactive: 0.034 | inactive: 0.003 |
| MAP7D1 (UniProt Q3KQU3) | inactive: 0.035 | inactive: 0.01 | inactive: -0.022 | inactive: 0.027 | inactive: -0.001 | inactive: -0.037 | inactive: -0.06 | inactive: 0.017 | inactive: 0.012 | inactive: -0.009 |
| LYSMD2 (UniProt Q8IV50) | inactive: -0.032 | inactive: 0.016 | inactive: -0.002 | inactive: 0.011 | inactive: -0.073 | inactive: 0.022 | inactive: -0.063 | inactive: -0.031 | inactive: -0.027 | inactive: -0.016 |
| MAGEC1 (UniProt O60732) | inactive: -0.009 | inactive: 0.018 | inactive: 0.016 | inactive: 0.016 | inactive: 0.006 | inactive: 0.008 | inactive: -0.014 | inactive: 0 | inactive: 0.011 | inactive: 0.037 |
| MAD2L1 (UniProt Q13257) | inactive: 0.005 | inactive: -0.003 | inactive: 0.035 | inactive: 0.001 | inactive: -0.021 | inactive: -0.003 | inactive: -0.03 | inactive: 0.015 | inactive: -0.018 | inactive: -0.004 |
| MAN1A2 (UniProt O60476) | inactive: 0.01 | inactive: -0.046 | inactive: 0.017 | inactive: -0.053 | inactive: -0.026 | inactive: 0.017 | inactive: 0.007 | inactive: 0.007 | inactive: -0.004 | inactive: -0.043 |
| MAGEB1 (UniProt P43366) | inactive: -0.001 | inactive: 0 | inactive: 0.033 | inactive: 0.004 | inactive: 0.03 | inactive: -0.005 | inactive: -0.08 | inactive: -0.028 | inactive: 0.023 | inactive: 0.017 |
| MAPK8IP3 (UniProt Q9UPT6) | inactive: 0.018 | inactive: 0.024 | inactive: 0.05 | inactive: -0.008 | inactive: -0.033 | inactive: -0.018 | inactive: -0.076 | inactive: -0.019 | inactive: -0.016 | inactive: -0.002 |
| MAN1A1 (UniProt P33908) | inactive: -0.014 | inactive: -0.008 | inactive: 0.038 | inactive: -0.038 | inactive: -0.097 | inactive: 0.044 | inactive: -0.005 | inactive: -0.024 | inactive: -0.017 | inactive: -0.001 |
| MAP1A (UniProt P78559) | inactive: 0.018 | inactive: 0.006 | inactive: 0.011 | inactive: 0.01 | inactive: 0 | inactive: -0.023 | inactive: 0.008 | inactive: 0.011 | inactive: 0.01 | inactive: -0.006 |
| MAGED2 (UniProt Q9UNF1) | inactive: -0.063 | inactive: -0.057 | inactive: -0.014 | inactive: -0.141 | inactive: 0.027 | inactive: -0.009 | inactive: -0.024 | inactive: 0.005 | inactive: 0.042 | inactive: -0.098 |
| MAP2K1 (UniProt Q02750) | inactive: 0.204 | active: 0.519 | inactive: -0.021 | inactive: 0.075 | inactive: 0 | inactive: -0.024 | inactive: -0.04 | inactive: 0.007 | inactive: -0.012 | inactive: -0.004 |
| MAPK6 (UniProt Q16659) | inactive: 0.07 | inactive: 0.025 | inactive: 0.004 | inactive: -0.05 | inactive: 0.012 | inactive: 0 | inactive: 0 | inactive: -0.006 | inactive: 0.029 | inactive: 0.021 |
| MAGEB2 (UniProt O15479) | inactive: -0.021 | inactive: -0.002 | inactive: 0.004 | inactive: 0.034 | inactive: -0.005 | inactive: -0.001 | inactive: -0.041 | inactive: -0.009 | inactive: -0.001 | inactive: 0.026 |
| MANBA (UniProt O00462) | inactive: 0.019 | inactive: -0.005 | inactive: 0.016 | inactive: 0.016 | inactive: -0.017 | inactive: 0.003 | inactive: -0.029 | inactive: 0.003 | inactive: -0.002 | inactive: 0.005 |
| LYAR (UniProt Q9NX58) | inactive: -0.009 | inactive: -0.035 | inactive: -0.011 | inactive: 0.016 | inactive: 0.004 | inactive: 0.03 | inactive: -0.012 | inactive: 0.016 | inactive: 0.015 | inactive: 0.038 |
| MAP1LC3B2 (UniProt A6NCE7) | inactive: 0.001 | inactive: 0.031 | inactive: -0.071 | inactive: 0.016 | inactive: -0.004 | inactive: -0.018 | inactive: -0.015 | inactive: -0.044 | inactive: -0.062 | inactive: 0.021 |
| MAP2K7 isoform 4 (UniProt O14733) | active: 1.44 | inactive: 0.288 | inactive: 0.028 | inactive: 0.028 | inactive: -0.071 | inactive: -0.029 | inactive: 0.011 | inactive: -0.004 | inactive: -0.002 | inactive: 0.018 |
| MAGT1 (UniProt Q9H0U3) | inactive: -0.027 | inactive: 0.006 | inactive: 0.028 | inactive: 0.022 | inactive: 0.043 | inactive: -0.058 | inactive: 0 | inactive: 0.039 | inactive: 0.028 | inactive: 0.003 |
| MAF1 (UniProt Q9H063) | inactive: -0.007 | inactive: -0.001 | inactive: 0.107 | inactive: 0.011 | inactive: -0.006 | inactive: 0.006 | inactive: -0.034 | inactive: 0.049 | inactive: 0.038 | inactive: -0.002 |
| MAD2L1BP isoform 3 (UniProt Q15013) | inactive: -0.016 | inactive: -0.099 | inactive: 0.038 | inactive: 0.015 | inactive: -0.037 | inactive: 0.107 | inactive: -0.054 | inactive: 0.005 | inactive: -0.011 | inactive: -0.05 |
| MACO1 (UniProt Q8N5G2) | inactive: 0 | inactive: 0.043 | inactive: -0.003 | inactive: -0.04 | inactive: 0.01 | inactive: 0.018 | inactive: -0.043 | inactive: -0.023 | inactive: -0.002 | inactive: 0.095 |
| LTV1 (UniProt Q96GA3) | inactive: 0.001 | inactive: -0.004 | inactive: -0.005 | inactive: 0.016 | inactive: 0.024 | inactive: 0.008 | inactive: -0.068 | inactive: -0.001 | inactive: -0.001 | inactive: 0.029 |
| MADD isoform 4 (UniProt Q8WXG6) | inactive: 0.034 | inactive: -0.018 | inactive: -0.023 | inactive: -0.039 | inactive: -0.001 | inactive: 0.032 | inactive: -0.007 | inactive: -0.009 | inactive: 0.021 | inactive: -0.011 |
| LUC7L2 (UniProt Q9Y383) | inactive: -0.013 | inactive: 0.013 | inactive: 0.014 | inactive: 0.004 | inactive: 0.018 | inactive: -0.029 | inactive: 0.009 | inactive: 0.01 | inactive: -0.013 | inactive: 0.023 |
| MACROD1 (UniProt Q9BQ69) | inactive: 0 | inactive: 0.015 | inactive: 0.098 | inactive: -0.024 | inactive: -0.008 | inactive: 0.022 | inactive: 0.017 | inactive: -0.101 | inactive: 0.064 | inactive: 0.065 |
| MARS2 (UniProt Q96GW9) | inactive: 0.004 | inactive: 0.018 | inactive: 0.008 | inactive: -0.048 | inactive: 0.014 | inactive: 0.017 | inactive: -0.05 | inactive: -0.033 | inactive: -0.022 | inactive: 0.007 |
| MAGEC2 (UniProt Q9UBF1) | inactive: -0.021 | inactive: 0.005 | inactive: 0.045 | inactive: -0.042 | inactive: 0.027 | inactive: -0.005 | inactive: -0.012 | inactive: 0.083 | inactive: -0.001 | inactive: 0.033 |
| MAD1L1 (UniProt Q9Y6D9) | inactive: 0.006 | inactive: 0.003 | inactive: -0.047 | inactive: -0.019 | inactive: 0.006 | inactive: 0.024 | inactive: -0.058 | inactive: 0.074 | inactive: -0.022 | inactive: -0.027 |

Just log2 fold change [2], log2 fold change [3] and log2 fold change [9] (two entries from above):
Target,log2 fold change [2],log2 fold change [3],log2 fold change [9]
MAGED2 (UniProt Q9UNF1),inactive: -0.057,inactive: -0.014,inactive: 0.042
MAP2K1 (UniProt Q02750),active: 0.519,inactive: -0.021,inactive: -0.012

2 entries drawn at random from those above:

| Target | log2 fold change [1] | log2 fold change [2] | log2 fold change [3] | log2 fold change [4] | log2 fold change [5] | log2 fold change [6] | log2 fold change [7] | log2 fold change [8] | log2 fold change [9] | log2 fold change [10] |
| --- | --- | --- | --- | --- | --- | --- | --- | --- | --- | --- |
| MAPK8IP3 (UniProt Q9UPT6) | inactive: 0.018 | inactive: 0.024 | inactive: 0.05 | inactive: -0.008 | inactive: -0.033 | inactive: -0.018 | inactive: -0.076 | inactive: -0.019 | inactive: -0.016 | inactive: -0.002 |
| MARS2 (UniProt Q96GW9) | inactive: 0.004 | inactive: 0.018 | inactive: 0.008 | inactive: -0.048 | inactive: 0.014 | inactive: 0.017 | inactive: -0.05 | inactive: -0.033 | inactive: -0.022 | inactive: 0.007 |
